Publication doi:10.1101/2020.02.28.970210
These are yes or no findings as the source states them, for the method shown. In cells and extracts the contact can be indirect. Some binding calls cover weakened binding; strength is not graded here.

Chains of the proteins cited; added tags and fusions are not shown.
UniProt O60260: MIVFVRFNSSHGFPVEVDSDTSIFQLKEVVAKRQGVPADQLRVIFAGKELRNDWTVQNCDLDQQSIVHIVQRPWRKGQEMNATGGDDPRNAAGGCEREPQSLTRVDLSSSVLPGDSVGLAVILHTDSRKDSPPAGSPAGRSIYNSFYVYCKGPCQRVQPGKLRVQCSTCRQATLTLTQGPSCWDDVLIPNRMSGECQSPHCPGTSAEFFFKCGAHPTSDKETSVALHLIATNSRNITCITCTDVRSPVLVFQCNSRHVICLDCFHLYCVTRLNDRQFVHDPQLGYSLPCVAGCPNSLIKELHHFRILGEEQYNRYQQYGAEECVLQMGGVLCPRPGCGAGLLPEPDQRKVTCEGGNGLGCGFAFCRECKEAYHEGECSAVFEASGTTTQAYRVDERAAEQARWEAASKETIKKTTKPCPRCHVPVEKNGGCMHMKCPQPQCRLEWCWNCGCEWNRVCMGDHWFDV
UniProt O14939: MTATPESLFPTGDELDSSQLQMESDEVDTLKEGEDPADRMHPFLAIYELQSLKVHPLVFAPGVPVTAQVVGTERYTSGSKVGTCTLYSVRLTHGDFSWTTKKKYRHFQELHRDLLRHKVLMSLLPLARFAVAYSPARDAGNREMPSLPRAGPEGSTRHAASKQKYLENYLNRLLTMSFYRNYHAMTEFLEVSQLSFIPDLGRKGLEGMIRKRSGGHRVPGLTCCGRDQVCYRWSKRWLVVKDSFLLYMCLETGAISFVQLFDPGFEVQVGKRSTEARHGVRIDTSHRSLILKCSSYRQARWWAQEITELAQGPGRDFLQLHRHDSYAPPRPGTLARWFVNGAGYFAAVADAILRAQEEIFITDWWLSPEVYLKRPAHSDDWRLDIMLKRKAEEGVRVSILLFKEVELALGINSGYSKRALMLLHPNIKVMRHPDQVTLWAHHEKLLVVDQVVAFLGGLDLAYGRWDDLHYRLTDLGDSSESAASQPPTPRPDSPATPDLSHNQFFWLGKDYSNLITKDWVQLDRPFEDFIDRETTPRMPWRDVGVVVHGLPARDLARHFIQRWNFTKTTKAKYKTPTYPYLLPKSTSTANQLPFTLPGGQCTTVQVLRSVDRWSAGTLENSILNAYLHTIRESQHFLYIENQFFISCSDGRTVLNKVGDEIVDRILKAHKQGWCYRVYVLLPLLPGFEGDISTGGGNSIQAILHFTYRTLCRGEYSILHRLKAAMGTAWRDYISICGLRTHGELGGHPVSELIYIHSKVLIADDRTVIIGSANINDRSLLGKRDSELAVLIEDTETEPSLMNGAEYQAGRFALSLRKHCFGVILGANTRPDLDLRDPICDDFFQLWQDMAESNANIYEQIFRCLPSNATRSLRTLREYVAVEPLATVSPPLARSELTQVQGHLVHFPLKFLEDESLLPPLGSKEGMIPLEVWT

Molecular target: Parkin (UniProt O60260)
Experiment: co-IP

In the case of “PLD2 (from UniProt O14939 1-933) (enzyme)”, the binding is reported as “binds”.
